Test system: ARPE-19 cells
Assay: Fibronectin deposition assay in TGFβ-stimulated ARPE-19 cells
Format: cell-based
Conditions: Homo sapiens, ARPE-19 cells stimulated with TGFβ, incubated 96 hours
Experimental: ARPE-19 cells were plated into 96-well plates (10,000 cells/well) and allowed to attach. Media was removed and replaced with the media specified in the “Cell Culture” section above, without FBS. Cells were treated for four days±TGFβ (10 ng/mL) and 10 μM loxapine. Cells were fixed with 10% neutral buffered formalin (Sigma-Aldrich) for 15 minutes. Cells were permeabilized with 0.25% Triton X-100 (Sigma-Aldrich) and blocked with 1% BSA for 1 hour. Cells were incubated with mouse monoclonal IgG3 primary antibodies against fibronectin (Santa Cruz Biotechnology), which were diluted 1:400 in 0.25% Triton X-100 (Sigma-Aldrich) with 1% BSA. Cells were incubated with primary antibodies either in 4° C. overnight or at room temperature for 2 hours. […] Immunofluorescence was measured using a Cytation 5 imaging reader (BioTek). […]
The antifibrotic activity of novel D2 dopamine receptor antagonists solnitropine and solupine were evaluated using the fibronectin deposition assay described in Example 1 (FIGS. 6A and 6B). The antifibrotic activity of D2 dopamine receptor antagonists methotrexate, spiperone, fluspirilene, penfluridol, droperidol, timiperone, benperidol, and lurasidone were evaluated using the fibronectin deposition assay described in Example 1 (FIG. 9A9C). […]

SMILES	IC50 [µM]
O=C(CCCN1CCC2(CC1)C(=O)NCN2c1ccccc1)c1ccc(F)cc1 [spiperone]	5 to 10
CN1CC2c3ccccc3Oc3ccc(Cl)cc3C2C1 (centres unmarked) [asenapine]	5 to 10

— patent US20250170143A1, “METHODS OF TREATING OCULAR FIBROTIC PATHOLOGIES” (Mayo Foundation for Medical Education and Research, priority 2022, published 2025)
